We go through one substance from article PMC11040000.

By UniProt entry, the sequences of proteins in these tests, tags left out.
UniProt Q02248: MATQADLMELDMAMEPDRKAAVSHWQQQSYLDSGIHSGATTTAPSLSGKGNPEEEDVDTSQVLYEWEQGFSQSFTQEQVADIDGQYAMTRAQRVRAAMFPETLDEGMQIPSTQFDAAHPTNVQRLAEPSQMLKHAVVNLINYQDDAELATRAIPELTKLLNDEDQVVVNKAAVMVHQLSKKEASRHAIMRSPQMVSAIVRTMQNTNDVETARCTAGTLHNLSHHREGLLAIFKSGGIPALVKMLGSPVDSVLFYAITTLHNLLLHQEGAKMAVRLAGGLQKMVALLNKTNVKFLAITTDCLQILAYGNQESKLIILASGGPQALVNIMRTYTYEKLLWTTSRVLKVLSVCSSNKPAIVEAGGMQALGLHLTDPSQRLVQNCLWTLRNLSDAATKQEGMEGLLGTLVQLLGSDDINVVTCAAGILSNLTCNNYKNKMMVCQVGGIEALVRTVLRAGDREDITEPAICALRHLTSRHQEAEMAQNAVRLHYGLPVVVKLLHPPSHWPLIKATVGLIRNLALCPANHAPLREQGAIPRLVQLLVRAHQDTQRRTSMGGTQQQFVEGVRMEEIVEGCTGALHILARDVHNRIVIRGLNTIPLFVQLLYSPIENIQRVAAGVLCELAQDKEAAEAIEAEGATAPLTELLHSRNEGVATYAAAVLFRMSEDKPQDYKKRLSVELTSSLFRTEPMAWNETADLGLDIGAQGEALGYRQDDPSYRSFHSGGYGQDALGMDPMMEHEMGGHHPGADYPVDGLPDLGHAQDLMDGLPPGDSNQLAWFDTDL

The test addresses T1, BCL9 (mouse (endogenous in primary MuSCs)) (UniProt Q9D219).
T1 sequence: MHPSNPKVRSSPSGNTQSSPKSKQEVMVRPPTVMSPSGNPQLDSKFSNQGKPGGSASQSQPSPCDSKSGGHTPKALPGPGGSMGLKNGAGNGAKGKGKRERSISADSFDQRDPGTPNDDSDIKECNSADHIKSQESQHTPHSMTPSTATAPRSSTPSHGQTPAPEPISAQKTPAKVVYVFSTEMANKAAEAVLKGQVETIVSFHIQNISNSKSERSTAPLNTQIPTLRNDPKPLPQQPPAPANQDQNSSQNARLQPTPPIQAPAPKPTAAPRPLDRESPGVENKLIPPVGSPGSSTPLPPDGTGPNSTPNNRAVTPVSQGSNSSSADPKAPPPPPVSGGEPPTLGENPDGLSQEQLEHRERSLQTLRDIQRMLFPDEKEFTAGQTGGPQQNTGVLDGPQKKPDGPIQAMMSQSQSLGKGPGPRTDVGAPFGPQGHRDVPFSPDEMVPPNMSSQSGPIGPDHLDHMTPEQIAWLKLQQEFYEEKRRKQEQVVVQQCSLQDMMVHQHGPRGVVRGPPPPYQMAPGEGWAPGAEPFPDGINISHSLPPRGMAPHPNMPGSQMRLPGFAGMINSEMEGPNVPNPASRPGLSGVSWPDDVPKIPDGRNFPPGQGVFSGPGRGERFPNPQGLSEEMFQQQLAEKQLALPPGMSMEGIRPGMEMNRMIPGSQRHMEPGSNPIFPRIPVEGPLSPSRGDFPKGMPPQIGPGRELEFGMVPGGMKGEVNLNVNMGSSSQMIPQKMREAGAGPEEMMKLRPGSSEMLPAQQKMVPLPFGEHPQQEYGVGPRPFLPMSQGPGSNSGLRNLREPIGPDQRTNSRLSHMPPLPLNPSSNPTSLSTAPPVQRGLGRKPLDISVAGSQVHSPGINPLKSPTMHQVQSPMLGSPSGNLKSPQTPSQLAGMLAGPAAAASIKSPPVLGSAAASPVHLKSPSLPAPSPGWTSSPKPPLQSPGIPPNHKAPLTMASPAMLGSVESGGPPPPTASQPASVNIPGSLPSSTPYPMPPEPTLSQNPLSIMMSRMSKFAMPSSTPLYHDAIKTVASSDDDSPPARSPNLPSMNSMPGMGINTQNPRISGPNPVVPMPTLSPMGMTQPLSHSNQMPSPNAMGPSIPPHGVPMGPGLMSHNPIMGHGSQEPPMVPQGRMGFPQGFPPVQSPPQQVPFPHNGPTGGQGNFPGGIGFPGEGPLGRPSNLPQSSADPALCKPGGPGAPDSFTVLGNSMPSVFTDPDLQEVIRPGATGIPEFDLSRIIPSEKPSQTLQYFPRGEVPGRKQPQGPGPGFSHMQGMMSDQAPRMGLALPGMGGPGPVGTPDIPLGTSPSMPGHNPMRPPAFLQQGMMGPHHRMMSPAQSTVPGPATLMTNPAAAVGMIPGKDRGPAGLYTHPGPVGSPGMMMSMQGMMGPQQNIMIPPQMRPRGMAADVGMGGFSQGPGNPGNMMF
The test can be described thus: proximity ligation; Duolink in situ PLA with mouse anti-β-catenin and rabbit anti-BCL9 on CTRL SC and LSD1 SCiKO MuSCs treated with Wnt3a (50 ng/ml, 6 h), cytoplasm removed; dots counted in nuclei.

Results are given in words; binding and its absence hold for the method and conditions named. In cells and extracts the contact can be indirect. Some entries that bind do so weakly or less than the wild type.

Turning to “β-catenin (endogenous) (from UniProt Q02248 1-781)”, the binding entry is reported as “binds”.
